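The test is a small-molecule microarray: each compound is printed twice on a reactive slide, and binding shows as fluorescence of the labelled oligonucleotide after washing. For the PreQ1, TPP and SAM-II riboswitches the laboratory earlier reported (doi:10.1038/s41467-019-09493-3) 1 µM RNA, 2 h, and a rule that included a mean Z-score above 3 (spot signal-to-noise against the whole library), a score well above that on a control array, and duplicate spots agreeing (coefficient of variation under 100). The data file gives only the calls; its cut-offs may differ, and compounds hitting several targets are kept. The calls come from the array alone, and fixing a compound to the slide can hide its binding.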 “active” means called a hit, “inactive” means screened and not called a hit. This is an unselected part of the compounds tested. A target missing from an entry has no call listed here. A dash means that no call is listed here.

Oligonucleotides screened, 5′ to 3′:
SAM-II: SAM-II riboswitch RNA pseudoknot, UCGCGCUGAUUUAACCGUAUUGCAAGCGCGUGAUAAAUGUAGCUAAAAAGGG. About 21,000 compounds screened, about 200 hits.
PreQ1: PreQ1 riboswitch RNA pseudoknot, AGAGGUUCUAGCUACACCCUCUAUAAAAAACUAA. From B. subtilis. About 24,000 compounds screened, about 170 hits.
TPP: TPP riboswitch RNA three-way junction, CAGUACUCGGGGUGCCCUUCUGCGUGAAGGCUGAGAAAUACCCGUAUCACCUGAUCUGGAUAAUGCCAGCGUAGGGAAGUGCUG. About 24,000 compounds screened, about 160 hits.

With O=[N+]([O-])c1cccnc1Nc1ccc(F)cc1 the screen gave PreQ1: inactive; TPP: inactive. Cc1ccc(S(=O)(=O)Nc2ccccc2CNc2cnc3ccccc3c2)cc1 was scored SAM-II: inactive; PreQ1: inactive; TPP: inactive. Calls for Cc1nn2c(NCCCN3CCOCC3)c3c(nc2c1-c1ccccc1)CCCC3 are PreQ1: inactive; TPP: inactive. For CCc1nc2c(sc3nc(C)cc(COC)c32)c(=O)n1CCO the calls were SAM-II: inactive; PreQ1: inactive; TPP: inactive. Calls for CC(O)c1nc2ccccc2n1CCCCOc1ccccc1 (centres undefined) are PreQ1: inactive; TPP: inactive. Calls for Nc1c(C(=O)O)cc(Br)c2c1C(=O)c1ccccc1C2=O are SAM-II: inactive; PreQ1: inactive; TPP: inactive. With O=C(NCc1nc(-c2ccncc2)n[nH]1)C1NCCc2[nH]cnc21 (centres undefined) the screen gave SAM-II: inactive; PreQ1: inactive; TPP: inactive.

For CC(NC(=O)CCc1cc2n(n1)CCNC2)c1cn2ccsc2n1 (centres undefined) the calls were SAM-II: inactive; PreQ1: inactive; TPP: inactive. For O=C(CCCc1ccc(Cl)cc1)N1CCN(CC2CC2)C(CCO)C1 (centres undefined) the calls were SAM-II: inactive; PreQ1: inactive; TPP: inactive. Calls for Cc1cc(N2CCN(CCO)CC2)n2nc(-c3ccccc3)nc2n1 are PreQ1: inactive; TPP: inactive. Cc1c(S(=O)(=O)c2ccc(Cl)cc2)c(N)n(CCN2CCCC2)c1C was scored SAM-II: inactive; PreQ1: inactive; TPP: inactive. For O=C1NC(C(=O)N2C[C@H]3CNC[C@H]3C2)Cc2ccccc21 (some centres undefined) the calls were SAM-II: inactive; PreQ1: inactive; TPP: inactive. Cc1ccc(-c2cc(-c3ccccc3)nc(N)n2)cc1 was scored PreQ1: inactive; TPP: inactive. With Cc1ccc(NC(=O)[C@@H]2CNC[C@H](C(=O)NCc3cccnc3)C2)cn1 the screen gave SAM-II: inactive; PreQ1: inactive; TPP: inactive.

For CCOc1ccc(Oc2nc(NC)nc(N3CCOCC3)n2)nn1 the calls were PreQ1: inactive; TPP: inactive. Calls for CC(=O)c1ccc(N2C(=O)CC(N3CCCCC3CCO)C2=O)cc1 (centres undefined) are SAM-II: inactive; PreQ1: inactive; TPP: inactive. For CC(C=CC=C(C)C=CC1=C(C)CCCC1(C)C)=CC=CC=C(C)C=CC=C(C)C=CC1=C(C)CCCC1(C)C the calls were SAM-II: inactive; PreQ1: inactive; TPP: inactive. With CCOC(=O)c1cnc(SCC)nc1N the screen gave PreQ1: inactive; TPP: inactive. For CC(Nc1nc(N)nc2c1CCCC2)c1ccc2c(c1)OCCO2 (centres undefined) the calls were SAM-II: inactive; PreQ1: inactive; TPP: inactive. Calls for CCc1nc(C)sc1CNC(=O)c1cn([C@H]2CC[C@@H](N)CC2)nn1 are SAM-II: inactive; PreQ1: inactive; TPP: inactive. CNCCN1C(=O)CC[C@H]2CN(c3nc(C)cc(C4CCC4)n3)CC[C@H]21 was scored SAM-II: inactive; PreQ1: inactive; TPP: inactive.

Calls for Cc1nc2ncnn2c(O)c1Oc1ccc(N)cc1 are SAM-II: inactive; PreQ1: inactive; TPP: inactive. Nc1c(C(=O)Nc2cccc(F)c2)c2ccccn2c1C(=O)c1ccc(Cl)cc1 was scored PreQ1: inactive; TPP: active. Calls for Cc1c(C#N)c(N)n(-c2ccc(Cl)cc2)c1C are SAM-II: inactive; PreQ1: inactive; TPP: inactive. With CC(C)Cn1c(CCCO)nc2ccccc21 the screen gave SAM-II: inactive; PreQ1: inactive; TPP: inactive. CC(=NNC(=S)N1CCC1)c1ccccn1 was scored SAM-II: inactive; PreQ1: inactive; TPP: inactive. For CC[C@H](N)C(=O)N1CCc2ccc(S(=O)(=O)N3CCCc4ccccc43)cc2C1 the calls were SAM-II: inactive; PreQ1: inactive; TPP: inactive. CCOc1ccc(C2c3c(-c4ccccc4O)n[nH]c3C(=O)N2CCO)cc1 (centres undefined) was scored PreQ1: inactive; TPP: inactive.

With CCc1nc(N)sc1-c1nc(CC(N)=O)nn1-c1ccc2c(c1)CCC2 the screen gave SAM-II: inactive; PreQ1: inactive; TPP: inactive. Calls for COc1cccc(CC(C)NC2CCN(C(=O)Nc3ccccc3)CC2)c1 (centres undefined) are SAM-II: inactive; PreQ1: inactive; TPP: inactive. For CN(C)c1ccc(-c2nc3cnccn3c2NC2CCCC2)cc1 the calls were SAM-II: inactive; PreQ1: inactive; TPP: inactive. For O=C(O)c1cc(NCc2ccc3c(c2)OCO3)ccc1N1CCOCC1 the calls were SAM-II: inactive; PreQ1: inactive; TPP: inactive. Calls for CNC(=O)[C@@H]1C[C@H](N)CN1C(=O)c1ccc(C)c(NC(=O)C2CCC2)c1 are SAM-II: inactive; PreQ1: inactive; TPP: inactive.

Some entries from above, unchanged:

structure	SAM-II	PreQ1	TPP
CC(O)c1nc2ccccc2n1CCCCOc1ccccc1 (centres undefined)	-	inactive	inactive
O=C(NCc1nc(-c2ccncc2)n[nH]1)C1NCCc2[nH]cnc21 (centres undefined)	inactive	inactive	inactive

Source: the ROBIN nucleic acid binder screens (doi:10.1002/anie.202211358).